For three molecules, binding results are on record in publication PMC7872283.

These are yes or no findings as the source states them, for the method shown. Binding seen in cells or lysates may run through a third protein. Binding can be weak; no strength is given. For some assays here: Tags and fused reporters may be left off the sequences shown.

What all share (experiment): co-IP
For experiment [1], the target named is T1, FLAG-tagged ubiquitin-like with PHD and RING finger domains 1 (UHRF1) (UniProt Q96T88).
T1 sequence: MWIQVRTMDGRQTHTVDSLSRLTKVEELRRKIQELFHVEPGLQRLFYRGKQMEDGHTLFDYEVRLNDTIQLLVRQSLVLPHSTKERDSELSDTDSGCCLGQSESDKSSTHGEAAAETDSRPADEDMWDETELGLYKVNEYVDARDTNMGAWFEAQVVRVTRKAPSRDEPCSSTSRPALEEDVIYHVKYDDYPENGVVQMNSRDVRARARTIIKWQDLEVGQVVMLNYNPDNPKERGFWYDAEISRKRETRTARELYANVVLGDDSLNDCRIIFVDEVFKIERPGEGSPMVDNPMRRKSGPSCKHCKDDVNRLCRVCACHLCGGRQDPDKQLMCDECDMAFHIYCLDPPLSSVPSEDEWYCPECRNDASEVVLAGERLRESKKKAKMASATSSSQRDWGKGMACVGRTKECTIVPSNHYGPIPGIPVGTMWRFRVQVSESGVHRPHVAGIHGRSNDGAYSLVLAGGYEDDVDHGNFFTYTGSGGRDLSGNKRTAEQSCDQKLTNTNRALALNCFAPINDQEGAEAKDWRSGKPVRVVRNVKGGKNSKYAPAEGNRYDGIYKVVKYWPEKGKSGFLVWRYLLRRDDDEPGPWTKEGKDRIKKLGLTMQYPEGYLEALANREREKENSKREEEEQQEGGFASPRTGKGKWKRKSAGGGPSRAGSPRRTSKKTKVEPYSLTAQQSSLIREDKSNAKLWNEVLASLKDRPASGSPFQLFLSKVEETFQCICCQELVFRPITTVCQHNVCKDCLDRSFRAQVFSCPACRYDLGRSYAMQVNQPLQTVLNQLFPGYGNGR

In experiment [2] the target is T2, FLAG-tagged checkpoint with FHA and RING finger domains (CHFR) (UniProt Q96EP1).
T2 sequence: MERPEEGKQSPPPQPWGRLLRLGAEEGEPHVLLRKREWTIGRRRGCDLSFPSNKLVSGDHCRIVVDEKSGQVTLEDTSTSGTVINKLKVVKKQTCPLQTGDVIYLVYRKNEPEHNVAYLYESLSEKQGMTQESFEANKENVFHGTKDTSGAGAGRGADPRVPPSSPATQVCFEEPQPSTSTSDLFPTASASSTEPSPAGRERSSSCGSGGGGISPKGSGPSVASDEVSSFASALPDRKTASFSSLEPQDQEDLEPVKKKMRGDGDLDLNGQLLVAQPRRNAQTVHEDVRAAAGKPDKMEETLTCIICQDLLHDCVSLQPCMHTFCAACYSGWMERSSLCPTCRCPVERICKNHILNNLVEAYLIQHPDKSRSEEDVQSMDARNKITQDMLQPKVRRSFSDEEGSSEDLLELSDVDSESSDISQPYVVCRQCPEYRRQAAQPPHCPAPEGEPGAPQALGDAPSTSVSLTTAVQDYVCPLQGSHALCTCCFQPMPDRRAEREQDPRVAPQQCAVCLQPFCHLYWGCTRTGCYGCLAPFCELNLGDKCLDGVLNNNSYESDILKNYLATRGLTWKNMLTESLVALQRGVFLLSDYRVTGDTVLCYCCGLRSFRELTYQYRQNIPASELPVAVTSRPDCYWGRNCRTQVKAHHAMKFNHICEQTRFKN

The target in experiment [3] is MYC-tagged PF-8 (KSHV processivity factor, wild type) (Kaposi's sarcoma-associated herpesvirus (KSHV; genomic DNA from BC-3 cells)).
Experiment [4] concerns the target FLAG-tagged PF-8, stably expressed from the lentiviral vector C274-FLAG-PF8 (Kaposi's sarcoma-associated herpesvirus (KSHV; genomic DNA from BC-3 cells)).

As to “MYC-tagged PF-8 (KSHV processivity factor, wild type)”, the binding result in experiment [1] and in experiment [2] was “binds” throughout.

B1: endogenous CHFR (enzyme, UniProt Q96EP1 1-664)
chain: T2 sequence
For the molecule B1, the binding result in experiment [3] and in experiment [4] was “binds” throughout.

B2: endogenous UHRF1 (enzyme, UniProt Q96T88 1-793)
chain: T1 sequence
As to B2, the binding entry in experiment [4] is “binds”.
